Data source: PubChem BioAssay AID1259254 (NCATS, 2017)

Test: 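Gene knock-downs that lead to re-replication, shown by excess G2 DNA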 (primary screen)
System: human HCT116 colorectal cancer cells
Knock-down reagent: single siRNA against human genes
Duration: 3 days
Read-out: 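Nuclei stained with Hoechst and imaged; cell-cycle phase assigned by DNA content; G2 share scaled per plate, non-targeting siRNA 0%, GMNN siRNA 100%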
Direction: G2 robust z-score: higher = more G2 cells, more excess DNA replication
Active means: 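An siRNA counts as active if its G2 robust z-score lies at least 5 MADs above the screen median; here such calls match roughly 38% of GMNN control or more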
In all, the deposit lists about 59,000 reagents; shown is an unselected part. Of all reagents, about 1,550 (2.6%) were called active. 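G2 share is only a proxy for re-replication; each gene was hit by three separate siRNAs, and active genes were retested.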 A number with no mark means an inactive call. Reagents against one gene are numbered here. Not all columns of the deposit are shown. Not stated in the record: the amount of reagent.

G2 robust z-score, by target and reagent
HAND1 (heart and neural crest derivatives expressed 1): #1 0.752; #2 -0.171; #3 -1.02
RPS19BP1 (ribosomal protein S19 binding protein 1): #1 1.95; #2 -0.935; #3 1.34
STARD13 (StAR related lipid transfer domain containing 13): #1 0.0101; #2 -0.498; #3 1.92
CHCHD5 (coiled-coil-helix-coiled-coil-helix domain containing 5): #1 -0.273; #2 0.378; #3 0.284
RGR (retinal G protein coupled receptor): #1 -0.714; #2 2.05; #3 0.462
BCL6 (BCL6 transcription repressor): #1 0.377; #2 -0.459; #3 2.89
RPP25 (ribonuclease P/MRP subunit p25): #1 2.01; #2 -0.363; #3 0.627
ZDHHC16 (zDHHC palmitoyltransferase 16): #1 -0.355; #2 0.69; #3 -0.886
MRPL15 (mitochondrial ribosomal protein L15): #1 -0.669; #2 0.838; #3 1.32
SRGAP2 (SLIT-ROBO Rho GTPase activating protein 2): #1 0.787; #2 -0.608; #3 -0.73; #4 0.144; #5 1.12; #6 -0.412

No new results follow: an excerpt of the list.
G2 robust z-score, by target and reagent
STARD13 (StAR related lipid transfer domain containing 13): #3 1.92
CHCHD5 (coiled-coil-helix-coiled-coil-helix domain containing 5): #1 -0.273; #2 0.378; #3 0.284
RGR (retinal G protein coupled receptor): #1 -0.714; #2 2.05; #3 0.462
BCL6 (BCL6 transcription repressor): #1 0.377; #2 -0.459; #3 2.89
RPP25 (ribonuclease P/MRP subunit p25): #1 2.01; #2 -0.363; #3 0.627
ZDHHC16 (zDHHC palmitoyltransferase 16): #1 -0.355

Further reagents:
G2 robust z-score, by target and reagent
PIH1D2 (PIH1 domain containing 2): #1 0.764; #2 2.37; #3 -0.0358
GNGT2 (G protein subunit gamma transducin 2): #1 3.5; #2 1.19; #3 -0.329
RABEP2 (rabaptin, RAB GTPase binding effector protein 2): #1 6.22 (active); #2 0.0376; #3 0.063
SGCG (sarcoglycan gamma): #1 -0.505; #2 3.45; #3 -0.397
OSBP (oxysterol binding protein): #1 0.979; #2 0.692; #3 0.0112
TGFBR2 (transforming growth factor beta receptor 2): #1 -0.234; #2 -0.941; #3 0.919
OR8D2 (olfactory receptor family 8 subfamily D member 2): #1 -0.248; #2 -0.827; #3 -0.533
PLPP6 (phospholipid phosphatase 6): #1 -0.66; #2 -0.251; #3 -0.319
ST6GALNAC2 (ST6 N-acetylgalactosaminide alpha-2,6-sialyltransferase 2): #1 3.4; #2 -0.417; #3 -0.03
MIER1 (MIER1 transcriptional regulator): #1 -0.0406; #2 -0.156; #3 -0.984
OCM2 (oncomodulin 2): #1 -0.52; #2 0.548; #3 -0.136
OTUD7B (OTU deubiquitinase 7B): #1 1.77; #2 -0.358; #3 0.412
CYP2J2 (cytochrome P450 family 2 subfamily J member 2): #1 -0.978; #2 0.734; #3 -0.806
RPS21 (ribosomal protein S21): #1 6.1 (active); #2 2.77; #3 2.02
ZNF776 (zinc finger protein 776): #1 1.45; #2 1.85; #3 -0.0983
KRT37 (keratin 37): #1 0.772; #2 -0.505; #3 -0.473
CENPA (centromere protein A): #1 1.04; #2 3.67; #3 -0.247
LCNL1 (lipocalin like 1): #1 0.759; #2 4.34; #3 -0.775
